# From patent US20250163052A1, “cGAS INHIBITORS AND USES THEREOF” (Cornell University, priority 2022, published 2025)
# At least one read-out could not be matched to a standard name with certainty.
# Assay: Protein binding in mouse brain homogenates
# Assay type: in vitro ADME
row,SMILES,% UnboundBrain [%]
1,Cn1cc(-c2cc(Cl)c(Cl)c3oc4c(c23)CN(C(=O)CN)CC4)cn1 [Compound 33],<0.004
2,Cn1cc(-c2cc(Cl)c(Cl)c3sc4c(c23)CN(C(=O)CO)CC4)cn1 [Compound 48],<0.01
3,O=C(CO)N1CCc2c(sc3c(Cl)c(Cl)cc(-c4cn[nH]c4)c23)C1 [Compound 63],<0.002
4,Cn1cc(-c2cc(Cl)c(Cl)c3sc4c(c23)CCN(C(=O)CN)C4)cn1 [Compound 74],7.06
5,Cn1cc(-c2cc(Cl)c(Cl)c3nc4c(n23)CN(C(=O)CO)CC4)cn1 [Compound 99],18.97
